Measurements: the supplement of paper PMC10849652
The other results are listed elsewhere or left out.

Amino acid sequences for entries named in this document (tags omitted). A change or cut given only in a name is not applied to a line headed by its entry.
UniProt Q9H6A9: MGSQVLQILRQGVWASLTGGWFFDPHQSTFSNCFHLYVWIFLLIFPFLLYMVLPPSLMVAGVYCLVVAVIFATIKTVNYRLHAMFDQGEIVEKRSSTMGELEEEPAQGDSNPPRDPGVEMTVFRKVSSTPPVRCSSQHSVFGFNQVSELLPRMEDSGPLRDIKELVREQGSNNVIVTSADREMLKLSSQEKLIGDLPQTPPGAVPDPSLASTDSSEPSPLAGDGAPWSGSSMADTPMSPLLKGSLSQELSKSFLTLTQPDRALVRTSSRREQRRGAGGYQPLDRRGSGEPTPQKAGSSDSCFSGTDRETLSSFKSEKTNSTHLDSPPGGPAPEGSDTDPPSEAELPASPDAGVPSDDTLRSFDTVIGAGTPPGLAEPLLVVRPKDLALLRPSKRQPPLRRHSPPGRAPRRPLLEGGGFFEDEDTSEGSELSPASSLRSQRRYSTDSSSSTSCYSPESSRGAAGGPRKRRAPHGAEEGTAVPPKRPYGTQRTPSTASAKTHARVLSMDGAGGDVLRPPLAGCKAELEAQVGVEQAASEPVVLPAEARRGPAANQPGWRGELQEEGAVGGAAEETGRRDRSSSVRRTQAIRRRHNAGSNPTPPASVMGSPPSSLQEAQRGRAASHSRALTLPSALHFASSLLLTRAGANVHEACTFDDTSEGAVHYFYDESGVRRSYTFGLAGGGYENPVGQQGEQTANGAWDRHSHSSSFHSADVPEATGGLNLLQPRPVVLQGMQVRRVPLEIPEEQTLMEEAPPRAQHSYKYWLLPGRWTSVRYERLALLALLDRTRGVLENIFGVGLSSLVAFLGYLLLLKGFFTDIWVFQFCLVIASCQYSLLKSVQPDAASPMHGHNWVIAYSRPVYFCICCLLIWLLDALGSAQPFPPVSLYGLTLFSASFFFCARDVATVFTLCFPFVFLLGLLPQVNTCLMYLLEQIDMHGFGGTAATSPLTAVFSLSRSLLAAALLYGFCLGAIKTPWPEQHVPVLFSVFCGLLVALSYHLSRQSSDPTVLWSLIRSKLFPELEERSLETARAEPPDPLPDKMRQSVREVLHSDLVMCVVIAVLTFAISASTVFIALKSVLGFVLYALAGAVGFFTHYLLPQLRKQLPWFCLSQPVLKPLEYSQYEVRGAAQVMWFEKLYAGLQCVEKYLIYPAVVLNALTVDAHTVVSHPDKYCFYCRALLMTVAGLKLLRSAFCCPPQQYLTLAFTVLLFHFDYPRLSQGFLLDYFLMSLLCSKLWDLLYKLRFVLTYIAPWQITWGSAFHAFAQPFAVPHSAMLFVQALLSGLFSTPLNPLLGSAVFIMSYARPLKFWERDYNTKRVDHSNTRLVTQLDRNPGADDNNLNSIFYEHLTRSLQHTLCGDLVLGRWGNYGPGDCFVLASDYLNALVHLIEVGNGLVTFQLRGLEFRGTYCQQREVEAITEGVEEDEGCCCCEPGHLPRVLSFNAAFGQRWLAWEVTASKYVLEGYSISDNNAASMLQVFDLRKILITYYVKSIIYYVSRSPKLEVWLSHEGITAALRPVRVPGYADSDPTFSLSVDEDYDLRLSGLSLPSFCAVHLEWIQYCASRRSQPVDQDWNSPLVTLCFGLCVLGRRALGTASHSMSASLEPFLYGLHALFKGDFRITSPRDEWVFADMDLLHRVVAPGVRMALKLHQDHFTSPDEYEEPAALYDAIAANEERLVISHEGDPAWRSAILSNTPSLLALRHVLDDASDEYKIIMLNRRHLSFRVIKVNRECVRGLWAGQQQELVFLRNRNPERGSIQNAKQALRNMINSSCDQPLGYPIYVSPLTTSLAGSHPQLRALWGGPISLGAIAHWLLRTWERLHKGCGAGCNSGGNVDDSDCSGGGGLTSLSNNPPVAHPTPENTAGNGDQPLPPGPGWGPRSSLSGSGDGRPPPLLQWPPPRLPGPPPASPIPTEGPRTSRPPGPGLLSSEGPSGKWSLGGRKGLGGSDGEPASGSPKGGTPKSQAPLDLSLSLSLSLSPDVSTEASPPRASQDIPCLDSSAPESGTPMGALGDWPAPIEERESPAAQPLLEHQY
UniProt Q9UKK3: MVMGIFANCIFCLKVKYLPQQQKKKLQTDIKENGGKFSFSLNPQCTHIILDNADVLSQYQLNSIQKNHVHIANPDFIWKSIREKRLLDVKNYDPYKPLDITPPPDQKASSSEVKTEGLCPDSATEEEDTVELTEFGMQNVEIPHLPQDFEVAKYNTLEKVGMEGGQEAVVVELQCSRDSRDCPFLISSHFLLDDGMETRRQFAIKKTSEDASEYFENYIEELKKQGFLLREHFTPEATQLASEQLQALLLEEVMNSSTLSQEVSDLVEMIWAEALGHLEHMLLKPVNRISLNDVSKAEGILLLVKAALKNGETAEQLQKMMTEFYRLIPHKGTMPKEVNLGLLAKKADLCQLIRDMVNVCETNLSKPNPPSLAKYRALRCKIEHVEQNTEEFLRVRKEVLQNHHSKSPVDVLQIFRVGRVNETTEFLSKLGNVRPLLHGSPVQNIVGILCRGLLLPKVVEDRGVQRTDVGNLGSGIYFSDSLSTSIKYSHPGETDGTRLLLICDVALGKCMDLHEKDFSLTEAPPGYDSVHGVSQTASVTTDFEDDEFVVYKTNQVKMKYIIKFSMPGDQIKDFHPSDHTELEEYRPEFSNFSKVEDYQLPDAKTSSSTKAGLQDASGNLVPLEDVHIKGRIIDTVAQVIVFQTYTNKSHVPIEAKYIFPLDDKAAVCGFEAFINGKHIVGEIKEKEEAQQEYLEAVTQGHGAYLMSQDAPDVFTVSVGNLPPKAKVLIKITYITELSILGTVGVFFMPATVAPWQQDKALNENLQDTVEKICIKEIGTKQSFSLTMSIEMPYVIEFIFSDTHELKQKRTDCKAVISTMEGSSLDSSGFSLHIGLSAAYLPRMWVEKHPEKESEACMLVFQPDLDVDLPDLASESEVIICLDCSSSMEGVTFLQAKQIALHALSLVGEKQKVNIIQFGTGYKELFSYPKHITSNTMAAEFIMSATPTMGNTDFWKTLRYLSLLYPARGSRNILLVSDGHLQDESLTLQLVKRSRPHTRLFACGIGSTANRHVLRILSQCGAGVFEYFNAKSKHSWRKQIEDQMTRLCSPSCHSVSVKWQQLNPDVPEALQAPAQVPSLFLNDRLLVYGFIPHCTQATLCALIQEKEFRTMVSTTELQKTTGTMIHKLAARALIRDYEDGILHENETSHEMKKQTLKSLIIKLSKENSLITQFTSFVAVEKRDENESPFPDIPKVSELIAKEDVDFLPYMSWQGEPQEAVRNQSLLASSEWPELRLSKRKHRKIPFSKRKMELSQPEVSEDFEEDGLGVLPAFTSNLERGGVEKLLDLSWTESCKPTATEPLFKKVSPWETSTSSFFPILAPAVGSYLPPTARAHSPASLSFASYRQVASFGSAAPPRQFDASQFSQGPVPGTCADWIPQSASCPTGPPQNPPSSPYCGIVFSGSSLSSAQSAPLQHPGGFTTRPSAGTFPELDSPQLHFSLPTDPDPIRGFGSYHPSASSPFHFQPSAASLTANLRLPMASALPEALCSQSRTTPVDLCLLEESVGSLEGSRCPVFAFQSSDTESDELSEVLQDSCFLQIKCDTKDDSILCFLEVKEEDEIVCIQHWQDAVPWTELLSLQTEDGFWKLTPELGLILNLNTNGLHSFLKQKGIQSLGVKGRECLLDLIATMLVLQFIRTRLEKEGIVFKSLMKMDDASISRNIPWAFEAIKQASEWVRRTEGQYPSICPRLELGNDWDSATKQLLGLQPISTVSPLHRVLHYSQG
UniProt P09874, whole entry, looked up: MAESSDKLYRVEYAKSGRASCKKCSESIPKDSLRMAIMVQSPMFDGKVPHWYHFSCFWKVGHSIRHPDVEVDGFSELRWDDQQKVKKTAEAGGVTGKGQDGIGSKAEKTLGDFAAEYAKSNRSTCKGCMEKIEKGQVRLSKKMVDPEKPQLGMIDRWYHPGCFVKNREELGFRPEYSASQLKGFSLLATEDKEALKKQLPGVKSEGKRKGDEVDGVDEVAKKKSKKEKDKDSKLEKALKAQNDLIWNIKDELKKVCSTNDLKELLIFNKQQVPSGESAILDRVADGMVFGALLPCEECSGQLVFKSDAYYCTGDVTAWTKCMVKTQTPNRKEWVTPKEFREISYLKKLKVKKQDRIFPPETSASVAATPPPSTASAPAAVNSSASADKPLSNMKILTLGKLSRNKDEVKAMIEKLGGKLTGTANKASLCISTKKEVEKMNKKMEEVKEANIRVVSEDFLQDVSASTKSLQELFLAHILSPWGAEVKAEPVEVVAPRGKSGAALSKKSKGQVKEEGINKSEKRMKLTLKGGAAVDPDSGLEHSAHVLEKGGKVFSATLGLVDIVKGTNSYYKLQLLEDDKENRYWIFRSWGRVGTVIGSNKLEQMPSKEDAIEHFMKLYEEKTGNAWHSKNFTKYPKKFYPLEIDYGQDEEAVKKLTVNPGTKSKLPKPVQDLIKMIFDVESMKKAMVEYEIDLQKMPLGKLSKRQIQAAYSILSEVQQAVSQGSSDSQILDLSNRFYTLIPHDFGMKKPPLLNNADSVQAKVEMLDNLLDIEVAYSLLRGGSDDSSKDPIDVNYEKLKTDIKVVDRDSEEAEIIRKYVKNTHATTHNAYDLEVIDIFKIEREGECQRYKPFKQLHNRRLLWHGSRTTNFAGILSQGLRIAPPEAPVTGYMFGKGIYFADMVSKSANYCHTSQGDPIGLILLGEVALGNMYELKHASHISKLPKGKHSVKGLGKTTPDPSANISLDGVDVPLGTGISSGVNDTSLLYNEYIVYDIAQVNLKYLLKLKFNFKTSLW
UniProt Q9UBM1: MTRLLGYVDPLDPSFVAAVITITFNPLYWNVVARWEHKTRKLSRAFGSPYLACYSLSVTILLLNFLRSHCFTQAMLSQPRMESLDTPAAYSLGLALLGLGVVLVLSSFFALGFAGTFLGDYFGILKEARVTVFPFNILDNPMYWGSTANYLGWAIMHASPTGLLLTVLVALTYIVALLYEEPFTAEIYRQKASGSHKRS
UniProt Q13370: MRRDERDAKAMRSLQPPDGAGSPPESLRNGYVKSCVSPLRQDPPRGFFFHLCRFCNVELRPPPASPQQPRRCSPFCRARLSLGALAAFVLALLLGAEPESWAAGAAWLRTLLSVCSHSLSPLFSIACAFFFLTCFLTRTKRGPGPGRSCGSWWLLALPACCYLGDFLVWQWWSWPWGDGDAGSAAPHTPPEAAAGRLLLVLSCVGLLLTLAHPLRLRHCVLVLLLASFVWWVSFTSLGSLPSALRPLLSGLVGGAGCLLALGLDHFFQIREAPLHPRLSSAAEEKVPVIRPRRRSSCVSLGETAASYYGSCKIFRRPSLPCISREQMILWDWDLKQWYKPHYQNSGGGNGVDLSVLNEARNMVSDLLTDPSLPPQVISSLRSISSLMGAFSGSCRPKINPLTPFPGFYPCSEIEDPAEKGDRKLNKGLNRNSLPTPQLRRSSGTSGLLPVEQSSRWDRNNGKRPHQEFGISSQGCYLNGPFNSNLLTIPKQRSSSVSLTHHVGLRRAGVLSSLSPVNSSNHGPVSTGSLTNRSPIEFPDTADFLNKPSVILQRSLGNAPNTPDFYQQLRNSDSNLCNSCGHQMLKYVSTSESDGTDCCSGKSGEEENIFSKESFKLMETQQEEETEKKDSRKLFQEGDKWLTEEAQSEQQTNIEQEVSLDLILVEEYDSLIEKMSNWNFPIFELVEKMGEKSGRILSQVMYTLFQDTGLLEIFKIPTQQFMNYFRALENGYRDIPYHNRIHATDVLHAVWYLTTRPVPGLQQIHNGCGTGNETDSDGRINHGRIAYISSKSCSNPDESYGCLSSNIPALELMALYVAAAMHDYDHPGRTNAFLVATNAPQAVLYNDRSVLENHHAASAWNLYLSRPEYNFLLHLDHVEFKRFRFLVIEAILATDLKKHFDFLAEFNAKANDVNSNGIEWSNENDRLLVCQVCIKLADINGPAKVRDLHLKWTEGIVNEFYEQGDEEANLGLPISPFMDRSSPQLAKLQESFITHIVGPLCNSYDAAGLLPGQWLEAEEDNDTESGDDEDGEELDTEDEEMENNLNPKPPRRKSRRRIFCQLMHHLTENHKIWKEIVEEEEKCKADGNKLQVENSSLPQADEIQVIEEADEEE
UniProt O43924: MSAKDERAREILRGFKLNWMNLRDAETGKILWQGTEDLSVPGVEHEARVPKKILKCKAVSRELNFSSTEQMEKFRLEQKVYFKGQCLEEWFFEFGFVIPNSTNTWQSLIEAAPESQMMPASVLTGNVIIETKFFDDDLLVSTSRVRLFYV
UniProt Q9BYE7: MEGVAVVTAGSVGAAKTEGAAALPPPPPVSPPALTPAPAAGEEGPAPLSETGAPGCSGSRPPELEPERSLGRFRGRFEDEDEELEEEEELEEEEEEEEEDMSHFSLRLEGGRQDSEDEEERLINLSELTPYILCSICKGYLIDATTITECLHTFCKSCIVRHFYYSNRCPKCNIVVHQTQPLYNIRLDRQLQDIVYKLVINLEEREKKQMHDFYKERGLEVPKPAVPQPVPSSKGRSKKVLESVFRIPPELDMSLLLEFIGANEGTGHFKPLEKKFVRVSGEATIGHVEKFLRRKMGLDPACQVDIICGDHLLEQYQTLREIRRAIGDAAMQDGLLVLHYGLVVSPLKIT

How the values were obtained:
Assay in all cases: log2 fold change, soluble protein after heating vs DMSO (PISA); higher = thermal stabilisation; K562 lysate, 10 uM; active = over 0.2 and 3.5 SD of the protein, either way, in both replicates (recomputed)
[1] = compound: CC1=C2C(=CC=C1)N=C(N(C2=O)C3=CC=CC=C3C)CN4C=NC5=C(N=CN=C54)N
Summary of the method: (§1)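 The values are log-two fold changes in thermal stability compared with solvent controls and come from duplicates. They were obtained by TMTpro 16plex LC-MS/MS, with channel sums equalised, on the supernatant after 21,000xg for 90 min. That supernatant came from crude K562 extract at 1 mg/mL protein treated with 10 μM compound for 30 min, heated for 3 min across 48°C-58°C, pooled and brought to 0.5% NP-40 at 4°C.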

[2] = compound: Cc1sc2c(c1C)C(c1ccc(Cl)cc1)=N[C@@H](CC(=O)OC(C)(C)C)c1nnc(C)n1-2
Summary of the method: as §1

[3] = compound: c1ccc([C@@H]2C[C@H]2NC2CCNCC2)cc1
Summary of the method: as §1

[4] = compound: C1=CC=C(C=C1)[C@H](COC2=CC3=C(C=C2)NC(=O)N3)NC(=O)C4=CC=CN(C4=O)CC5=CC(=C(C=C5)F)F
Summary of the method: as §1

[5] = compound: CC1=C(SC2=C1C(=N[C@H](C3=NN=C(N32)C)CC(=O)N)C4=CC=C(C=C4)Cl)C
Summary of the method: as §1

Measured: log2 fold change

PDE4DIP (UniProt E9PS60)
inactive: [1] 0.074 | [2] -0.12 | [3] -0.257

PFKM isoform 3 (UniProt P08237)
inactive: [4] 0.013 | [5] 0.021 | [1] 0.093 | [2] 0.007 | [3] -0.01

PBX2 (UniProt P40425)
inactive: [4] 0.021 | [5] -0.002 | [1] 0.047 | [2] 0.025 | [3] 0.005

PCGF1 (UniProt Q9BSM1)
inactive: [1] 0.085 | [2] -0.008 | [3] -0.103

PCNX3 (UniProt Q9H6A9)
inactive: [4] 0.223 | [5] -0.053 | [1] 0.143 | [2] -0.013 | [3] 0.121

PFN3 (UniProt P60673)
inactive: [1] 0.072 | [3] -0.004

PCK1 (UniProt P35558)
inactive: [4] 0.088 | [5] -0.036 | [1] 0.175 | [3] -0.552

PDLIM7 (UniProt Q9NR12)
inactive: [4] 0.009 | [5] 0.041 | [1] 0.017 | [2] 0.023 | [3] 0.004

PCLAF (UniProt Q15004)
inactive: [4] 0.053 | [5] 0.016 | [1] -0.037 | [2] -0.059 | [3] -0.039

PDIA4, A0A499FI48
inactive: [2] 0.083 | [3] 0.564

PARP4 (UniProt Q9UKK3)
inactive: [4] -0.132 | [5] 0.081 | [2] -0.076 | [3] 0.095

PCMTD1 (UniProt Q96MG8)
inactive: [1] -0.067

PARP1 (UniProt P09874)
inactive: [4] -0.015 | [5] -0.002 | [1] 0.003 | [2] 0.017 | [3] 0.033

PEX1 (UniProt O43933)
inactive: [1] 0.055

PELO (UniProt Q9BRX2)
inactive: [4] -0.014 | [5] 0.05 | [1] 0.034 | [2] 0.087 | [3] 0.27

PDE4A (UniProt P27815)
inactive: [4] -0.146 | [5] -0.035 | [1] 0.078 | [2] -0.06 | [3] -0.084

PEX12 (UniProt O00623)
inactive: [3] -0.212

PARP12 (UniProt Q9H0J9)
inactive: [4] -0.071 | [5] 0.056 | [2] 0.023

PEMT isoform 2 (UniProt Q9UBM1)
inactive: [1] 0.087 | [3] 0.089

PCBP2 (UniProt F8VRH0)
inactive: [3] 0.232

PER3 isoform 2 (UniProt P56645)
inactive: [4] 0.007 | [5] -0.029 | [1] -0.054 | [2] 0.094 | [3] -0.004

PDF (UniProt Q9HBH1)
inactive: [4] -0.056 | [5] -0.007 | [1] -0.024 | [2] 0.024 | [3] 0.028

PDE3B (UniProt Q13370)
inactive: [2] 0.059 | [3] -0.005

PER2 (UniProt O15055)
inactive: [1] -0.108 | [3] 0.171

PBRM1 (UniProt Q86U86)
inactive: [4] -0.034 | [5] -0.046 | [2] 0.089 | [3] 0.25

PDIK1L (UniProt Q8N165)
inactive: [2] -0.084

PECAM1 (UniProt P16284)
inactive: [4] -0.013 | [5] 0.018 | [1] -0.064 | [2] -0.009 | [3] -0.067

PDE6D (UniProt O43924)
inactive: [4] 0.054 | [5] -0.025 | [2] -0.052 | [3] -0.187

PCGF6 (UniProt Q9BYE7)
inactive: [1] 0.003 | [2] 0.083 | [3] 0.051

PEX6 (UniProt Q13608)
inactive: [4] -0.064 | [5] -0.135 | [2] 0.009 | [3] -0.073

Reprinted from above (2 entries):
PDIK1L (UniProt Q8N165)
inactive: [2] -0.084

PECAM1 (UniProt P16284)
inactive: [4] -0.013 | [5] 0.018 | [1] -0.064 | [2] -0.009 | [3] -0.067

Additional records follow.

PDP1 isoform 2 (UniProt Q9P0J1)
inactive: [2] -0.045
